PubChem BioAssay AID652243 – Drosophila RNAi Screening Center | 2013
Aim: 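Fly regulators of androgen-dependent reporter output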 (primary screen). Cells: Drosophila S2R+ cells. Reagents: long dsRNA against Drosophila genes. Time to read-out: 72 h (48 h, then 24 h hormone). Conditions: synthetic androgen R1881 at 10 nM for 24 h. Measured: 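Per-well raw luminescence of the androgen-driven firefly reporter and of the Renilla control, two replicates each, without normalisation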. Scale: firefly reporter light: higher = more light from androgen-responsive reporter; Renilla control light: higher = more constitutive control signal (cell number, transfection). Hit rule: 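Across duplicate plates, a knock-down whose log firefly/Renilla ratio shifted a set fold down or up from the GFP/LacZ control mean was a hit; the downward cut appears as both 1.5 and 3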. Meaning of the calls: active = hit: reporter lowered or raised; inactive = no hit.
In all, the deposit lists about 24,000 reagents; below is a random part of those with a known target gene and a result. Of all reagents, 246 (1%) are marked active. 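Plates not normalised; calls are printed but the firefly/Renilla ratio behind them is not deposited; fold cut for lowering reported inconsistently.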 The raw values are shown without normalisation. Entries without a mark were called inactive. A plus sign joins genes that one reagent is predicted to hit. Not stated in the record: the amount of reagent.

| Gene | PubChem SID | firefly reporter light, replicate 1 | firefly reporter light, replicate 2 | Renilla control light, replicate 1 | Renilla control light, replicate 2 |
| --- | --- | --- | --- | --- | --- |
| CG5968 | SID104182708 | 1.30e5 | 1.15e5 | 1.73e6 | 1.67e6 |
| CG31807 | SID104181342 | 1.55e5 | 2.05e5 | 4.10e5 | 5.34e5 |
| CG6362 | SID104187205 | 71005 | 61478 | 1.42e6 | 1.42e6 |
| CG6362 | SID104204679 | 4.48e5 | 3.54e5 | 8.06e5 | 7.62e5 |
| snoRNA:660 + Act57B | SID104202752 | 9.16e5 | 6.68e5 | 7.93e5 | 5.64e5 |
| Vajk4 | SID104186381 | 4.04e5 | 5.34e5 | 7.45e5 | 1.08e6 |
| Vajk4 | SID104186795 | 1.20e5 | 1.30e5 | 3.02e6 | 3.02e6 |
| Vajk4 | SID104203872 | 4.66e5 | 6.02e5 | 7.73e5 | 7.79e5 |
| CG3337 | SID104195270 | 4.66e5 | 4.95e5 | 2.83e6 | 3.74e6 |
| p (pink) | SID104196352 | 90574 | 63006 | 2.53e6 | 1.39e6 |
| p (pink) | SID104206435 | 8.33e5 | 5.33e5 | 2.42e6 | 1.54e6 |
| Nhe1 (Na[+]/H[+] hydrogen exchanger 1) | SID104180554 | 1.18e6 | 1.12e6 | 4.87e6 | 2.99e6 |
| nemy (no extended memory) | SID104185149 | 1.99e5 | 2.12e5 | 4.01e5 | 4.35e5 |
| nemy (no extended memory) | SID104187054 | 9.34e5 | 1.04e6 | 1.07e6 | 1.31e6 |
| nemy (no extended memory) | SID104205076 | 2.74e5 | 2.00e5 | 4.97e5 | 5.06e5 |
| Cont (Contactin) | SID104191941 | 64081 | 91616 | 3.45e5 | 4.18e5 |
| Hsp70Bc (Heat shock protein 70 Bc) | SID104195845 | 1.60e5 | 1.07e5 | 1.48e6 | 1.15e6 |
| wac (wee Augmin) | SID104188141 | 64137 | 1.52e5 | 8.18e5 | 1.91e6 |
| wac (wee Augmin) | SID104207517 | 5.06e5 | 3.89e5 | 1.47e6 | 1.15e6 |
| Ptr (Patched-related) | SID104184644 | 2.37e5 | 2.33e5 | 1.58e6 | 1.05e6 |
| Ptr (Patched-related) | SID104201237 | 6.30e5 | 5.68e5 | 2.14e6 | 1.67e6 |
| CG11791 | SID104194183 | 43275 | 54056 | 5.99e5 | 8.14e5 |
| CG11791 | SID104208043 | 4.69e5 | 4.14e5 | 6.92e5 | 6.92e5 |
| Kua | SID104181892 | 1.60e5 | 2.44e5 | 1.69e6 | 2.11e6 |
| side-II (sidestep II) | SID104181705 | 2.24e5 | 2.77e5 | 2.01e6 | 2.47e6 |
| side-II (sidestep II) | SID104181724 | 6.44e5 | 7.22e5 | 2.34e6 | 3.05e6 |
| side-II (sidestep II) | SID104182272 | 3.85e5 | 7.14e5 | 8.62e5 | 1.19e6 |
| side-II (sidestep II) | SID104201957 | 93501 | 1.67e5 | 3.05e5 | 6.16e5 |
| side-II (sidestep II) | SID104203664 | 5.83e5 | 6.42e5 | 5.50e5 | 6.45e5 |
| CG18088 | SID104182446 | 2.07e5 | 1.21e5 | 1.26e6 | 1.05e6 |
| CG13040 | SID104189713 | 2.63e5 | 2.21e5 | 2.20e6 | 1.64e6 |
| CG13040 | SID104206973 | 2.35e5 | 5.01e5 | 6.78e5 | 1.35e6 |

Ordered by “Renilla control light, replicate 2” (ascending): 8 of the entries above.
| Gene | PubChem SID | firefly reporter light, replicate 1 | firefly reporter light, replicate 2 | Renilla control light, replicate 1 | Renilla control light, replicate 2 |
| --- | --- | --- | --- | --- | --- |
| Cont (Contactin) | SID104191941 | 64081 | 91616 | 3.45e5 | 4.18e5 |
| CG11791 | SID104208043 | 4.69e5 | 4.14e5 | 6.92e5 | 6.92e5 |
| CG11791 | SID104194183 | 43275 | 54056 | 5.99e5 | 8.14e5 |
| Ptr (Patched-related) | SID104184644 | 2.37e5 | 2.33e5 | 1.58e6 | 1.05e6 |
| Hsp70Bc (Heat shock protein 70 Bc) | SID104195845 | 1.60e5 | 1.07e5 | 1.48e6 | 1.15e6 |
| wac (wee Augmin) | SID104207517 | 5.06e5 | 3.89e5 | 1.47e6 | 1.15e6 |
| Ptr (Patched-related) | SID104201237 | 6.30e5 | 5.68e5 | 2.14e6 | 1.67e6 |
| wac (wee Augmin) | SID104188141 | 64137 | 1.52e5 | 8.18e5 | 1.91e6 |

More reagents follow:
| Gene | PubChem SID | firefly reporter light, replicate 1 | firefly reporter light, replicate 2 | Renilla control light, replicate 1 | Renilla control light, replicate 2 |
| --- | --- | --- | --- | --- | --- |
| TotX (Turandot X) | SID104201742 | 5.20e5 | 5.80e5 | 2.18e6 | 1.59e6 |
| TotX (Turandot X) | SID104207652 | 4.84e5 | 4.93e5 | 1.60e6 | 1.45e6 |
| Nagk (N-acetylglucosamine kinase) | SID104195786 | 43810 | 57276 | 4.63e5 | 5.15e5 |
| CG4751 | SID104182568 | 9.08e5 | 1.27e6 | 1.62e6 | 1.69e6 |
| CG5888 | SID104181721 | 1.06e6 | 9.71e5 | 1.11e6 | 1.28e6 |
| CG5888 | SID104206734 | 4.54e5 | 5.57e5 | 9.22e5 | 1.07e6 |
| mthl1 (methuselah-like 1) | SID104199697 | 2.79e5 | 3.13e5 | 3.01e6 | 3.07e6 |
| indra | SID104188350 | 1.31e6 | 1.27e6 | 1.58e6 | 1.58e6 |
| indra | SID104205389 | 5.37e5 | 4.70e5 | 1.16e6 | 9.80e5 |
| Art7 (Arginine methyltransferase 7) | SID104184380 | 1.74e5 | 2.77e5 | 1.72e6 | 1.36e6 |
| Art7 (Arginine methyltransferase 7) | SID104204689 | 3.87e5 | 3.05e5 | 7.06e5 | 6.65e5 |
| CG30419 | SID104184000 | 2.69e5 | 2.74e5 | 2.35e6 | 2.37e6 |
| CG30419 | SID104184001 | 3.01e5 | 3.66e5 | 2.38e6 | 2.39e6 |
| CG30419 | SID104201965 | 4.89e5 | 5.76e5 | 1.26e6 | 1.52e6 |
| Bx42 | SID104197535 | 46900 | 57492 | 5.15e5 | 5.30e5 |
| Bx42 | SID104206210 | 2.98e5 | 2.32e5 | 6.14e5 | 6.23e5 |
| casp (caspar) | SID104186956 | 6.41e5 | 6.60e5 | 2.37e6 | 1.89e6 |
| CG10910 | SID104185799 | 1.22e5 | 91338 | 2.03e6 | 2.03e6 |
| CG10910 | SID104207849 | 4.99e5 | 4.74e5 | 1.55e6 | 1.40e6 |
| Fer3 (48 related 3) | SID104195925 | 44197 | 27422 | 3.56e5 | 3.68e5 |
| Fer3 (48 related 3) | SID104205213 | 2.20e5 | 2.43e5 | 7.01e5 | 7.81e5 |
| Fer3 (48 related 3) | SID104216640 | 9.80e5 | 9.58e5 | 1.90e6 | 2.47e6 |
| Cyp12c1 (Cytochrome P450 12c1) | SID104190917 | 1.00e5 | 72728 | 5.04e5 | 4.77e5 |
| Cyp12c1 (Cytochrome P450 12c1) | SID104203107 | 4.92e5 | 3.49e5 | 5.72e5 | 5.23e5 |
| CG3999 | SID104195326 | 1.56e5 | 1.43e5 | 2.08e6 | 2.22e6 |
| CG3999 | SID104207988 | 4.86e5 | 3.18e5 | 1.07e6 | 1.07e6 |
| CG43673 + CG43672 | SID104199244 | 4.03e5 | 4.47e5 | 2.80e6 | 2.07e6 |
| CG43673 + CG43672 | SID104199900 | 4.81e5 | 4.00e5 | 3.64e6 | 2.65e6 |
| mei-P26 (meiotic P26) | SID104202406 | 4.94e5 | 5.36e5 | 1.39e6 | 1.51e6 |
| CG34323 | SID104216371 | 1.02e6 | 9.63e5 | 2.04e6 | 1.70e6 |
| CG11159 | SID104185842 | 85279 | 86696 | 1.48e6 | 1.66e6 |
| CG5160 | SID104182613 | 2.16e5 | 2.50e5 | 2.69e6 | 1.59e6 |
| CG5160 | SID104207000 | 1.91e5 | 5.79e5 | 5.64e5 | 1.03e6 |
| CG9269 | SID104196257 | 1.62e5 | 1.31e5 | 2.25e6 | 1.24e6 |
| Pcyt2 (Phosphocholine cytidylyltransferase 2) | SID104188323 | 9.96e5 | 1.15e6 | 1.63e6 | 2.57e6 |
| CG13531 | SID104183965 | 3.28e5 | 3.37e5 | 1.64e6 | 1.46e6 |
| ClC-c (Chloride channel-c) | SID104190291 | 23722 | 6649 | 3.08e5 | 1.46e5 |
| CG30479 | SID104186527 | 1.05e5 | 51210 | 2.14e6 | 2.14e6 |
| CG30479 | SID104207387 | 3.93e5 | 3.66e5 | 1.71e6 | 1.68e6 |
| Nep6 (Neprilysin 6) | SID104199669 | 1.01e5 | 1.06e5 | 4.27e5 | 3.72e5 |
| Deaf1 (Deformed epidermal autoregulatory factor-1) | SID104190935 | 2.90e5 | 2.54e5 | 1.23e6 | 1.66e6 |
| Deaf1 (Deformed epidermal autoregulatory factor-1) | SID104202145 | 3.30e5 | 4.69e5 | 7.80e5 | 1.23e6 |
| Deaf1 (Deformed epidermal autoregulatory factor-1) | SID104204528 | 3.70e5 | 3.88e5 | 8.47e5 | 7.04e5 |
